Measured values as given in PMC6358617.

Amino acid sequences for entries named in this document (tags omitted). A change or cut given only in a name is not applied to a line headed by its entry.
UniProt P20333: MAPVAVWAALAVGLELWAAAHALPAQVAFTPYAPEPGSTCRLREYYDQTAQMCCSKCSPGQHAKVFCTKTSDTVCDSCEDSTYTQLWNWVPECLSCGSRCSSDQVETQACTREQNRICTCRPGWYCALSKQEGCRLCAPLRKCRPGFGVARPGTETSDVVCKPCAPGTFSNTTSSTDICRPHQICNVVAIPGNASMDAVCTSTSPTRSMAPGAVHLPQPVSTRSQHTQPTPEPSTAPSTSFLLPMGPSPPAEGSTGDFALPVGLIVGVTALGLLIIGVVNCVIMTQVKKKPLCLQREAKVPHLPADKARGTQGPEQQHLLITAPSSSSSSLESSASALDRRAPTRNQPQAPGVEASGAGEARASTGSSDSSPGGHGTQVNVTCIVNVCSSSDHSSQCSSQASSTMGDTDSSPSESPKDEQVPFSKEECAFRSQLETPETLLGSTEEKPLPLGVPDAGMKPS

Columns and labels:
Test in all cases: ELASA
[1] = target: rituximab Fc, glycosylated (FabRICATOR/IdeS digest, FragIT) (UniProt P01857); settings: 20 mM Tris-HCl pH 7.6, 100 mM NaCl, 2 mM MgCl2, 5 mM KCl, 1 mM CaCl2, 0.02% Tween 20, SAW at 22 C (protein A chip-captured rituximab), ELASA at room temperature, 2 h, commercial protein, label: 5'-biotin in ELASA
[2] = target: etanercept (Enbrel) (UniProt P20333); settings: 20 mM Tris-HCl pH 7.6, 100 mM NaCl, 2 mM MgCl2, 5 mM KCl, 1 mM CaCl2, 0.02% Tween 20, SAW at 22 C (protein A chip-captured rituximab), ELASA at room temperature, 2 h, commercial protein, label: 5'-biotin in ELASA
[3] = test system: Fc/2, non-glycosylated; settings: 20 mM Tris-HCl pH 7.6, 100 mM NaCl, 2 mM MgCl2, 5 mM KCl, 1 mM CaCl2, 0.02% Tween 20, SAW at 22 C (protein A chip-captured rituximab), ELASA at room temperature, 2 h, recombinant protein, label: 5'-biotin in ELASA
[4] = 50 nM aptamer, single-stranded DNA
[5] = 50 nM aptamer, folded or branched DNA
[6] = 25 nM aptamer, single-stranded DNA

| Sequence | binding result [1, 4] | binding result [2, 4] | binding result [3, 4] | binding result [1, 6] | binding result [2, 6] | binding result [3, 6] | further results |
| --- | --- | --- | --- | --- | --- | --- | --- |
| CGGCGGGGGGAGGATTGTGGTCTGCTCATGGCTGCCGTTT [RA1] | no binding | no binding | no binding | – | – | – | – |
| CGTGGGTGGGGATTGTGGTTTGGCTGATGGGGTGCTGGTT [RA6] | – | – | – | – | – | – | binding result ([1]; 50 nM aptamer, low but positive, folded or branched DNA): binds more weakly |
| GGCCGGTAGATGGGGAATCGGTTTCGGTGGGGCTAGGGAC [RA5] | no binding | no binding | no binding | – | – | – | – |
| GGGGGTGAGGATTGTGGTTTGGCTTATTGGTTTGCTGGTG [RA3] | – | – | – | – | – | – | binding result [1, 5]: no binding; binding result [2, 5]: no binding; binding result [3, 5]: no binding |
| TATACTGGGCCGTGCGTGACTTTTCCGTGCTGCATGAGAG [RA4] | – | – | – | no binding | no binding | no binding | – |
| TGGGGGTAGGATTGTGGTTGGCTTTAATTGCTTTGGTGGT [RA2] | – | – | – | no binding | no binding | no binding | – |

Negatives hold for the conditions tested. At least one verdict was read from the data and is not stated in words by the source. For some of these results: Construct, isoform or probe ends are uncertain for at least one entry. For some of these results: The comparison behind a weaker result is the experiment's own reference, which may not be listed here.
